Test results as given in publication PMC4908412, “β-arrestin-1 contributes to brown fat function and directly interacts with PPARα and PPARγ” (Scientific Reports, 2016).
No constants are given. Whether binding was seen depends on the method and setting. For part of these data: In cells and extracts the contact can be indirect. Some results given as binding are weak or reduced against the parent protein; the word gives no strength.

Protein sequences, listed by entry. Tags and fused reporters are not part of them.
UniProt P49407: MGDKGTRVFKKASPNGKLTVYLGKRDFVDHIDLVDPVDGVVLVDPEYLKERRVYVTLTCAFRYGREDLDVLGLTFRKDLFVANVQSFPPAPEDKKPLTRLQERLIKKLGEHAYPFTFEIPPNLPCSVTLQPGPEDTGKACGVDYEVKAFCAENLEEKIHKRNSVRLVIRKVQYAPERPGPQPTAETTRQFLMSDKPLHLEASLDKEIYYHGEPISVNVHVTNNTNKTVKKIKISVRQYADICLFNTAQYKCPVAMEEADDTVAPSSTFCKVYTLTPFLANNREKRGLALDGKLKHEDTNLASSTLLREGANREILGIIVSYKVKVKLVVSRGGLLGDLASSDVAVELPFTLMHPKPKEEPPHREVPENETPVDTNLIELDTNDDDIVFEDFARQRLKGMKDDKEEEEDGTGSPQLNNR
UniProt P37231: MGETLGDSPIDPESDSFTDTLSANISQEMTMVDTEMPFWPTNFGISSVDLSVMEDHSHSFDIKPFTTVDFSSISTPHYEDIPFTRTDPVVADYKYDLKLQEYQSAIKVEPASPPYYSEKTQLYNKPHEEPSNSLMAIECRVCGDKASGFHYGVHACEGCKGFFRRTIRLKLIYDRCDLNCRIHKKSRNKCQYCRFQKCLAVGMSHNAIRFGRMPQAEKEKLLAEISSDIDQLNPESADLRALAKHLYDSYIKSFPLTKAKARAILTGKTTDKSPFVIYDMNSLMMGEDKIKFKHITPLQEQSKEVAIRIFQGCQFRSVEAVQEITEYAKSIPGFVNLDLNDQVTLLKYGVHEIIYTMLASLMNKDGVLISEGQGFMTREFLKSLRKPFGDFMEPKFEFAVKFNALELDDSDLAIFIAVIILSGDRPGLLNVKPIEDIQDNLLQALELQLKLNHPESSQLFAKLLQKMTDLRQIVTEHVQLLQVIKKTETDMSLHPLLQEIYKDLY
UniProt P29066: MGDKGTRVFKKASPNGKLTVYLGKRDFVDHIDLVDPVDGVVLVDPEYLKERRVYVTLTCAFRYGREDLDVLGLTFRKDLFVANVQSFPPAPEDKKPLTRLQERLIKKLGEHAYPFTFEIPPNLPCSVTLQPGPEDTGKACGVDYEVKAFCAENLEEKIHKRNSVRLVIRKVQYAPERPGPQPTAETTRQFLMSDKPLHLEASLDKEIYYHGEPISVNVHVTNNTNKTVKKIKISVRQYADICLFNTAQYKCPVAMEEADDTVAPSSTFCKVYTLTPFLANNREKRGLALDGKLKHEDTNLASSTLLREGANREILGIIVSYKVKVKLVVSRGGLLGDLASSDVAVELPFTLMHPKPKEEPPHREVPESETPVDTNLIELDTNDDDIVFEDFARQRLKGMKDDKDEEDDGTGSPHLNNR

T1: PPARα-LBD L302G/N303G (human) (UniProt Q07869)
T1 sequence: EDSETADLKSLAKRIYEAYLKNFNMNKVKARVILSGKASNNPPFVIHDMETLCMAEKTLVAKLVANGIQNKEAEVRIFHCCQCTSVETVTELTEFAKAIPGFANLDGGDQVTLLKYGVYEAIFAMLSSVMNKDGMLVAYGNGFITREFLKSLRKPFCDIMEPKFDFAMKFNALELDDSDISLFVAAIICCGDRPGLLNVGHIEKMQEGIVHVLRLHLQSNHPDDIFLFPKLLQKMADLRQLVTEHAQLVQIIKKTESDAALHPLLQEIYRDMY


Key:
[1] = target: endogenous β-arrestin-1 (HepG2 cells) (human (endogenous in HepG2)) (UniProt P49407); experiment: co-IP; endogenous proteins; HepG2 lysate, IP with mouse anti-β-arrestin-1 antibody overnight, protein G affinity gel, Western blot
[2] = target: T1, PPARα-LBD L302G/N303G (human); experiment: BLI; Octet Red 96; 50 μg/ml biotinylated PPARα-LBD or PPARγ-LBD (or their mutants) immobilised on streptavidin biosensors; analyte β-arrestin-1, βarr1M or peptides in solution (single 2 μM or serial dilutions, β-arrestin-1 0.5–32 μM); 25 °C; 2:1 heterogeneous ligand model and steady-state analysis; both purified

Row | Molecule | binding [1] | binding [2]
1 | endogenous PPARγ (HepG2 cells) (from UniProt P37231 1-505) | binds | –
2 | β-arrestin-1 (recombinant rattus β-arrestin-1) (from UniProt P29066 1-418) | – | binds
3 | endogenous PPARα (HepG2 cells) (protein, UniProt Q07869 1-468) MVDTESPLCPLSPLEAGDLESPLSEEFLQEMGNIQEISQSIGEDSSGSFGFTEYQYLGSCPGSDGSVITDTLSPASSPSSVTYPVVPGSVDESPSGALNIECRICGDKASGYHYGVHACEGCKGFFRRTIRLKLVYDKCDRSCKIQKKNRNKCQYCRFHKCLSVGMSHNAIRFGRMPRSEKAKLKAEILTCEHDIEDSETADLKSLAKRIYEAYLKNFNMNKVKARVILSGKASNNPPFVIHDMETLCMAEKTLVAKLVANGIQNKEAEVRIFHCCQCTSVETVTELTEFAKAIPGFANLDLNDQVTLLKYGVYEAIFAMLSSVMNKDGMLVAYGNGFITREFLKSLRKPFCDIMEPKFDFAMKFNALELDDSDISLFVAAIICCGDRPGLLNVGHIEKMQEGIVHVLRLHLQSNHPDDIFLFPKLLQKMADLRQLVTEHAQLVQIIKKTESDAALHPLLQEIYRDMY | binds | –
